Values from PubChem BioAssay AID1159578 (Peter MacCallum Cancer Centre, 2015).
Assay: 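siRNA pools altering how lymphatic endothelial cells close a scratch wound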 (primary screen). Cells: human lymphatic endothelial cells. Reagent: siRNA pool against human genes, 40 nM. Time to read-out: 48 h after transfection. Read-out: 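Cells stained with dye and imaged after a scratch; covered wound area and nuclei counted, duplicates averaged, migration set against mock wells and turned into a robust z-score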. Direction: migration robust z-score: higher = faster migration into the scratch; nuclei per well: higher = more cells in the well. Hit rule: 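Migration changed when robust z exceeds 2 or falls below -2 and mean nuclei number is at least 3300; otherwise not called changed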. Calls: active = migration changed; inactive = no migration change, or too few cells.
The whole screen tested about 18,000 reagents; below is a random part of them. About 1,030 of them (5.7%) count as active. 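Inactive calls also include pools with fewer than 3300 nuclei, whose migration was not assessed.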 The raw values are shown without normalisation. A number with no mark means an inactive call. Not all columns of the deposit are shown.

gene | migration robust z-score | nuclei per well, duplicate mean
ZNF34 (GeneID 80778) | 0.52 | 5074
ORAI1 (GeneID 84876) | -1.24 | 5552
FBXL5 (GeneID 26234) | 0.47 | 5724
CLDND2 (GeneID 125875) | -0.79 | 2564
OR1Q1 (GeneID 158131) | -0.12 | 6653
CXCR6 (GeneID 10663) | 0 | 6302
SELL (GeneID 6402) | -0.94 | 5832
GGTLC1 (GeneID 92086) | -1.17 | 5503
PPP1R1A (GeneID 5502) | -0.99 | 5218
ADPGK (GeneID 83440) | -0.78 | 7197
ZNF93 (GeneID 81931) | -0.14 | 5610
KLRG1 (GeneID 10219) | -0.6 | 5524
ZNF682 (GeneID 91120) | -0.18 | 6123
S100A7 (GeneID 6278) | -0.06 | 6102
NLRX1 (GeneID 79671) | 0.71 | 4178
NSMCE3 (GeneID 56160) | -1.44 | 5286
MTMR9 (GeneID 66036) | 1.04 | 6481
LRRC24 (GeneID 441381) | -0.72 | 5700

Laid out differently: 4 of the entries above.
gene,migration robust z-score,"nuclei per well, duplicate mean"
KLRG1 (GeneID 10219),-0.6,5524
ZNF682 (GeneID 91120),-0.18,6123
S100A7 (GeneID 6278),-0.06,6102
NLRX1 (GeneID 79671),0.71,4178

Further records follow.
gene | migration robust z-score | nuclei per well, duplicate mean
NID2 (GeneID 22795) | 1.58 | 6462
KRT27 (GeneID 342574) | -0.78 | 3906
DIAPH2 (GeneID 1730) | -0.05 | 5544
PRL (GeneID 5617) | 1.22 | 6678
DUSP19 (GeneID 142679) | 1.58 | 6167
ZNF714 (GeneID 148206) | -0.88 | 6294
DAB2 (GeneID 1601) | -1.9 | 6931
DEFB103A (GeneID 414325) | -1.44 | 5104
GCNA (GeneID 93953) | 0.6 | 5100
MCTP1 (GeneID 79772) | 0.67 | 7504
SV2A (GeneID 9900) | 1.38 | 6208
ARIH1 (GeneID 25820) | 1.27 | 6024
SNCAIP (GeneID 9627) | 0.56 | 4074
MAP2K3 (GeneID 5606) | -1.84 | 4469
FLACC1 (GeneID 130540) | 0.62 | 6262
ANG (GeneID 283) | -1.12 | 3860
TPGS2 (GeneID 25941) | -1.05 | 4054
LINC01565 (GeneID 23434) | 1.54 | 6544
GFM2 (GeneID 84340) | 0.96 | 5566
TMEM132E-DT (GeneID 400591) | -1.3 | 4890
A1CF (GeneID 29974) | -0.02 | 5844
